PubChem BioAssay AID720703 – Peter MacCallum Cancer Centre | 2013
The deposit covers 714 reagents; shown is a part drawn at random. Over the whole deposit, 50 (7%) got an active call. 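Chosen pools sit at both extremes, so both low and high scores count as candidates; some pools appear more than once.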 Some reagents were tested in more than one well and are listed for each.

Test: 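Which kinases alter ERK activation once AT1R is stimulated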 (primary screen)
Cells: immortalised, SV40-transformed mammary epithelial cells from human, with stable expression of tagged AT1R
Reagent: siRNA pool against human genes, 40 nM siRNA pool per well
Duration: 72 h from transfection to lysis and read-out
Challenge: angiotensin II stimulation (dose and duration not given); EGFR inhibitor AG1478 also listed
Read-out: 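ERK1/2 phosphorylation corrected for confluency, given as a robust z-score, mean over two replicate plates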
Direction: phospho-ERK z-score: higher = more ERK phosphorylation after angiotensin II, relative to plate
Call rule: 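Pools were ordered by robust z-score and 50 top-ranked pools, whether they raised or lowered the signal, were chosen for secondary testing; no numeric threshold was reported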
Calls: active = picked for secondary screen; inactive = not picked

Which result is listed for JAK1?
phospho-ERK z-score, replicate mean: -0.11; activity call: inactive

What did the screen give for PIK3C2G?
phospho-ERK z-score, replicate mean: 0.7; activity call: inactive

For DDR2, what does the deposit list?
phospho-ERK z-score, replicate mean: 1.99; activity call: inactive

For BRSK1, what does the deposit list?
phospho-ERK z-score, replicate mean: 1.19; activity call: inactive

What did the screen give for BRSK1?
phospho-ERK z-score, replicate mean: -0.82; activity call: inactive

How did the screen score DSTYK?
phospho-ERK z-score, replicate mean: 0.52; activity call: inactive

What did the screen give for MAPK13?
phospho-ERK z-score, replicate mean: 0.12; activity call: inactive

How did the screen score TJP2?
phospho-ERK z-score, replicate mean: 0.15; activity call: inactive

How did the screen score FGFR3?
phospho-ERK z-score, replicate mean: -1.08; activity call: active

For FLT4, what was measured?
phospho-ERK z-score, replicate mean: -0.48; activity call: inactive

Called active, of those listed so far:
FGFR3: phospho-ERK z-score, replicate mean = -1.08; activity call = active

The list goes on.
What did the screen give for CDK15?
phospho-ERK z-score, replicate mean: 0.3; activity call: inactive

Which result is listed for PAK6?
phospho-ERK z-score, replicate mean: 0.4; activity call: inactive

With TK2, how do the results read?
phospho-ERK z-score, replicate mean: -0.4; activity call: inactive

Which result is listed for STK11?
phospho-ERK z-score, replicate mean: 0.72; activity call: inactive

What did the screen give for CKM?
phospho-ERK z-score, replicate mean: -0.6; activity call: inactive

How did the screen score BRDT?
phospho-ERK z-score, replicate mean: -0.43; activity call: inactive

Which result is listed for MAGI1?
phospho-ERK z-score, replicate mean: 0.57; activity call: inactive

For VRK1, what was measured?
phospho-ERK z-score, replicate mean: -0.64; activity call: inactive

What did the screen give for CKMT2?
phospho-ERK z-score, replicate mean: -0.56; activity call: inactive
